Measurements reported in PubChem BioAssay AID1259308 (NCATS, 2017)

- Aim: 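Candidate targets for better recombinant protein yield in mammalian cells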 (primary screen)
- Cells: human HEK293 embryonic kidney cells stably expressing firefly luciferase (HEK-CMV-Luc2-Hygro)
- Knock-down reagent: single siRNA against human genes, 0.8 pmol siRNA per well
- Duration: 72 h
- Measurement: 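Reporter luminescence and viable-cell signal on separate replicate plates, given as percent of non-targeting control and median/MAD z-scores, plus per-cell luciferase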
- Reading the numbers: total luciferase, z-score and total luciferase, % of control: higher = more reporter protein produced; luciferase per cell, z-score: higher = more reporter output per viable cell; viable cells, % of control: higher = more viable cells
- Hit rule: 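An siRNA counts as active if its total luciferase robust z-score exceeds 3; genes with two or more such siRNAs out of three were retested with fresh siRNAs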
- Meaning of the calls: active = raised luciferase; inactive = no rise
Shown is one part, drawn at random, of about 59,000 reagents. About 1,510 of them (2.6%) were called active. 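Calls use total luciferase alone and ignore viability, so some active siRNAs may act by altering cell number.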 The numbers tell different reagents against one gene apart.

target,reagent,"total luciferase, z-score","total luciferase, % of control","luciferase per cell, z-score","viable cells, % of control",Outcome
ERICH3 (glutamate rich 3),1,0.646,94.7,0.91,83.3,inactive
ERICH3 (glutamate rich 3),2,1.73,116,1.59,85.5,inactive
ERICH3 (glutamate rich 3),3,-1.6,50.1,-1.55,84.3,inactive
CTDP1 (CTD phosphatase 1),1,-1.3,56.1,-1.51,93.2,inactive
CTDP1 (CTD phosphatase 1),2,-1.42,53.7,-2.26,109,inactive
CTDP1 (CTD phosphatase 1),3,-1.38,54.5,-2.25,110,inactive
APOF (apolipoprotein F),1,-1.3,56.1,-1.61,95.7,inactive
APOF (apolipoprotein F),2,-0.248,77,0.896,67.9,inactive
APOF (apolipoprotein F),3,-0.0845,80.2,-0.76,109,inactive
TTLL12 (tubulin tyrosine ligase like 12),1,-0.522,71.5,-0.814,99,inactive
TTLL12 (tubulin tyrosine ligase like 12),2,0.0372,82.6,-0.259,98.8,inactive
TTLL12 (tubulin tyrosine ligase like 12),3,0.168,85.2,0.00412,95.1,inactive
SZRD1 (SUZ RNA binding domain containing 1),1,1.28,107,1.52,80.4,inactive
SZRD1 (SUZ RNA binding domain containing 1),2,1.24,107,0.376,108,inactive
SZRD1 (SUZ RNA binding domain containing 1),3,-0.3,75.9,-0.426,94.9,inactive
MBD2 (methyl-CpG binding domain protein 2),1,-1.99,42.3,-2.53,92.1,inactive
MBD2 (methyl-CpG binding domain protein 2),2,1.04,102,0.98,88.5,inactive
MBD2 (methyl-CpG binding domain protein 2),3,-0.399,74,-0.362,90.9,inactive
MEIS1 (Meis homeobox 1),1,-0.379,74.3,-0.509,95,inactive
MEIS1 (Meis homeobox 1),2,2.08,123,2.47,71.8,inactive
MEIS1 (Meis homeobox 1),3,-0.149,78.9,-0.232,93.8,inactive
CA11 (carbonic anhydrase 11 (inactive)),1,-0.684,68.3,-1.03,100,inactive
CA11 (carbonic anhydrase 11 (inactive)),2,0.0618,83.1,0.913,73,inactive
CA11 (carbonic anhydrase 11 (inactive)),3,3.03,142,1.92,95.9,active
DHRS4L1 (dehydrogenase/reductase 4 like 1 (pseudogene)),1,2.63,134,2.33,81.2,inactive
DHRS4L1 (dehydrogenase/reductase 4 like 1 (pseudogene)),2,-0.862,64.7,-0.525,83.1,inactive
DHRS4L1 (dehydrogenase/reductase 4 like 1 (pseudogene)),3,-0.121,79.5,-0.189,93.3,inactive
BST2 (bone marrow stromal cell antigen 2),1,-2.11,40,-1.46,65.7,inactive
BST2 (bone marrow stromal cell antigen 2),2,0.633,94.5,0.74,86.9,inactive
BST2 (bone marrow stromal cell antigen 2),3,1.36,109,1.83,75.3,inactive
SMCHD1,1,1.27,107,0.539,104,inactive
SMCHD1,2,-0.0678,80.5,-0.0428,91,inactive
SMCHD1,3,1.04,103,0.937,89.5,inactive
CHRNG (cholinergic receptor nicotinic gamma subunit),1,-1.21,57.9,-1.32,91.7,inactive
CHRNG (cholinergic receptor nicotinic gamma subunit),2,0.148,84.8,0.13,91.6,inactive
CHRNG (cholinergic receptor nicotinic gamma subunit),3,-0.0264,81.4,-0.161,94.9,inactive
SUZ12 (SUZ12 polycomb repressive complex 2 subunit),1,-0.00315,81.8,0.997,70.3,inactive
SUZ12 (SUZ12 polycomb repressive complex 2 subunit),2,-0.545,71,-0.371,87.5,inactive
SUZ12 (SUZ12 polycomb repressive complex 2 subunit),3,-0.0585,80.7,-0.408,100,inactive
"ZFP91 (ZFP91 zinc finger protein, atypical E3 ubiquitin ligase)",1,0.0854,83.6,-0.324,102,inactive
"ZFP91 (ZFP91 zinc finger protein, atypical E3 ubiquitin ligase)",2,0.355,88.9,0.568,85.6,inactive
"ZFP91 (ZFP91 zinc finger protein, atypical E3 ubiquitin ligase)",3,-0.672,68.5,-0.753,93.4,inactive
CEP41 (centrosomal protein 41),1,0.935,100,1.4,77.6,inactive
CEP41 (centrosomal protein 41),2,0.384,89.5,0.107,97.3,inactive
CEP41 (centrosomal protein 41),3,0.484,91.5,-0.276,110,inactive
PTH2R (parathyroid hormone 2 receptor),1,-0.291,76.1,-0.605,99.7,inactive
PTH2R (parathyroid hormone 2 receptor),2,-0.295,76,-0.0787,86.7,inactive
PTH2R (parathyroid hormone 2 receptor),3,-0.859,64.8,-1.24,100,inactive
RBM38 (RNA binding motif protein 38),1,-1.35,55.1,-0.904,78.1,inactive
RBM38 (RNA binding motif protein 38),2,-2.79,26.4,-4.09,86.7,inactive
RBM38 (RNA binding motif protein 38),3,-0.0105,81.7,0.00693,91.1,inactive
NPAS4 (neuronal PAS domain protein 4),1,-0.662,68.7,-0.0269,77.3,inactive
NPAS4 (neuronal PAS domain protein 4),2,0.0673,83.2,0.686,77.6,inactive
NPAS4 (neuronal PAS domain protein 4),3,2.58,133,4.85,41.5,inactive
UBTD2 (ubiquitin domain containing 2),1,0.0981,83.8,-0.23,99.5,inactive
UBTD2 (ubiquitin domain containing 2),2,1.42,110,1.66,79.6,inactive
UBTD2 (ubiquitin domain containing 2),3,0.83,98.4,0.103,107,inactive

Reagents above marked active:
target,reagent,"total luciferase, z-score","total luciferase, % of control","luciferase per cell, z-score","viable cells, % of control",Outcome
CA11 (carbonic anhydrase 11 (inactive)),3,3.03,142,1.92,95.9,active
